Measured values from the supplement of paper PMC10849652.
The list shows a part of the results.

Amino acid sequences for entries named in this document (tags omitted). A change or cut given only in a name is not applied to a line headed by its entry.
UniProt O43447: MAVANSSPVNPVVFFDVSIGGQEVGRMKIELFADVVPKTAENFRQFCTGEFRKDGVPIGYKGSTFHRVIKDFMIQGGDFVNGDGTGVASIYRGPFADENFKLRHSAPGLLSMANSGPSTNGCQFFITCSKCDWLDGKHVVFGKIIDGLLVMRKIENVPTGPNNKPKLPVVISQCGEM
UniProt O60828: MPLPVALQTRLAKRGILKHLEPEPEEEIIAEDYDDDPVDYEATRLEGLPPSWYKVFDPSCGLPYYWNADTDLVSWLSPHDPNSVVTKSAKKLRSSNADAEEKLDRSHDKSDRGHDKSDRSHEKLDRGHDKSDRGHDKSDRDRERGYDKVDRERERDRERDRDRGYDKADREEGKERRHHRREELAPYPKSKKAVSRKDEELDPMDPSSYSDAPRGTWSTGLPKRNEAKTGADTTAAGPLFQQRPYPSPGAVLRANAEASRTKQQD
UniProt O43314: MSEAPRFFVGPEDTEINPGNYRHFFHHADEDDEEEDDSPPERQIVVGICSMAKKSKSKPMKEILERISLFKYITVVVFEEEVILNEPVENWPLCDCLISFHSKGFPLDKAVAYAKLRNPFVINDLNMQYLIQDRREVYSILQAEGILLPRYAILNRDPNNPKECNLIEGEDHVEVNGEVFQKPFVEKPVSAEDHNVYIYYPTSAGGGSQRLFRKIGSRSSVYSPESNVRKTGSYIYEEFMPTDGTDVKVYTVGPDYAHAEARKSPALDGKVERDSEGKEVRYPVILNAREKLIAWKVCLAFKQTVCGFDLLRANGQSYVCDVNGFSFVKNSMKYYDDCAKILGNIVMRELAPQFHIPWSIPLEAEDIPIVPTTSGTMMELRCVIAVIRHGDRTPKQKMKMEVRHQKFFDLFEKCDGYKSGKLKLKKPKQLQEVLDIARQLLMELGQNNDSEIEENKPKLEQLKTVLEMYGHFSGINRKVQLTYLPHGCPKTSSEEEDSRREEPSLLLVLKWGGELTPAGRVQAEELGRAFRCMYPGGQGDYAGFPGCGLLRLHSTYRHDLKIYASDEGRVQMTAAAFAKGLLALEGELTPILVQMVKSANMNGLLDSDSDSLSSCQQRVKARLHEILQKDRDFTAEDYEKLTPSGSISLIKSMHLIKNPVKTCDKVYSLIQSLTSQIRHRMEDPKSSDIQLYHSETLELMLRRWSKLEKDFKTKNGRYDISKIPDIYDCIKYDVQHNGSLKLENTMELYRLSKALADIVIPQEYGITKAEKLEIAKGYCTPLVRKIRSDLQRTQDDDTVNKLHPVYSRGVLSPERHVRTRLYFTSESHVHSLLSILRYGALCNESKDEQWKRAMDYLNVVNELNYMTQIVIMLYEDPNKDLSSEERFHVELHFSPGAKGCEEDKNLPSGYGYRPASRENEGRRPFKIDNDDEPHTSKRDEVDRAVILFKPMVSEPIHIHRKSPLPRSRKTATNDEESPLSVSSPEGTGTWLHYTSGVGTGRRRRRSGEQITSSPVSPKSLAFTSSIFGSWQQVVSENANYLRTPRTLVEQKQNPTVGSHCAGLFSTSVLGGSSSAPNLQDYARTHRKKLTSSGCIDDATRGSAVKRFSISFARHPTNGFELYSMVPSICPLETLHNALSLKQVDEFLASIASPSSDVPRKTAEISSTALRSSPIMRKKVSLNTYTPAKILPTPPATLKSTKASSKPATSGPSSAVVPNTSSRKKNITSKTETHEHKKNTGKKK
UniProt P14314: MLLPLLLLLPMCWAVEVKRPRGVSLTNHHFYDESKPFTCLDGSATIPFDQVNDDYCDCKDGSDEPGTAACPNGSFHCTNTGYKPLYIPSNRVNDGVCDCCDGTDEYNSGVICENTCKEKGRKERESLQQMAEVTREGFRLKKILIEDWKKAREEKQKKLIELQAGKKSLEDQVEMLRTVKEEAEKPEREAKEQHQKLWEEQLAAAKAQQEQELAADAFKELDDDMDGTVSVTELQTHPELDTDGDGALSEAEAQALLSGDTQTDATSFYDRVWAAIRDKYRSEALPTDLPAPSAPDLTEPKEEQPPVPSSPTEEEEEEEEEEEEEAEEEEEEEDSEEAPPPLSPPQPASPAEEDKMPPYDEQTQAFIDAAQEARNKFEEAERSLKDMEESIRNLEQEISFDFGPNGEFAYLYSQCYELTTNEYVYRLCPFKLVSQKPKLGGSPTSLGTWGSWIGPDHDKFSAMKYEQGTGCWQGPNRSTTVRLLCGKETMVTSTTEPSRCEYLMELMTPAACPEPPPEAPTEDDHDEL
UniProt Q05655: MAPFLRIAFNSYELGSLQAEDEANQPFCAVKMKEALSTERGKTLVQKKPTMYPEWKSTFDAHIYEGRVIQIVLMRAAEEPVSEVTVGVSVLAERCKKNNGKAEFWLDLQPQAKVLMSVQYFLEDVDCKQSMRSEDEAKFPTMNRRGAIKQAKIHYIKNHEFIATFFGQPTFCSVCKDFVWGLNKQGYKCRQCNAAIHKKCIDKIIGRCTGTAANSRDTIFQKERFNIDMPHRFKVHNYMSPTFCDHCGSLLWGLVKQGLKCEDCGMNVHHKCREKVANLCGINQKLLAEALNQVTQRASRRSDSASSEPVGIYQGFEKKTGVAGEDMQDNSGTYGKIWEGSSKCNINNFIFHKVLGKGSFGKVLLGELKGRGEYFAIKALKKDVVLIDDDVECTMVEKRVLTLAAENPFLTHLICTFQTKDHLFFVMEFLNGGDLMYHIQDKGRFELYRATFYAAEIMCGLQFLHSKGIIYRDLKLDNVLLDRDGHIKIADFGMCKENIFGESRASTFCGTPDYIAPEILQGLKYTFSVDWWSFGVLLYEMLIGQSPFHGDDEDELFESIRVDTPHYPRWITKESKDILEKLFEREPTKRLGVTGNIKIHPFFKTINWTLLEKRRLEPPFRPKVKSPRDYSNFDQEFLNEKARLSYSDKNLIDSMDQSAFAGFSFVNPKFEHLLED
UniProt P13861, whole entry, looked up: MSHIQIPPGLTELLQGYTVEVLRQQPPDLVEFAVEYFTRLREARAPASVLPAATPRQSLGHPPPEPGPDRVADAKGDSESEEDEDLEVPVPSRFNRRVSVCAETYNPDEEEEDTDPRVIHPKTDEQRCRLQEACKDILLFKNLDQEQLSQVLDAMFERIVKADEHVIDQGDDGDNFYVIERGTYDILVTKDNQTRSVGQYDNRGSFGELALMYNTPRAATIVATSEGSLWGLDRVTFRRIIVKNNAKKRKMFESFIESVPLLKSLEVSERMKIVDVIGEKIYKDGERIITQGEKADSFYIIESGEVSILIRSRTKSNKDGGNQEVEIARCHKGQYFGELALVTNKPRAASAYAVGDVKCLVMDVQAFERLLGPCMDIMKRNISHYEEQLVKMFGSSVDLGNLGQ
UniProt P62714, whole entry, looked up: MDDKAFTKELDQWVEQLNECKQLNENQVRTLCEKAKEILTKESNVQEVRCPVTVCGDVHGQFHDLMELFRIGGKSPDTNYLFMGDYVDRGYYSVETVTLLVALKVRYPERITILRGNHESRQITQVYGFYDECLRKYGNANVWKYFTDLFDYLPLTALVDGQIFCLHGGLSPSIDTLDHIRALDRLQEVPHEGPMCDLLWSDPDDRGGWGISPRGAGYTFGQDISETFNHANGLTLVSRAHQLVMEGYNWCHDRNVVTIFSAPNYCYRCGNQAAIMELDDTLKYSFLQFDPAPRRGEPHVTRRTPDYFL
UniProt P30153, whole entry, looked up: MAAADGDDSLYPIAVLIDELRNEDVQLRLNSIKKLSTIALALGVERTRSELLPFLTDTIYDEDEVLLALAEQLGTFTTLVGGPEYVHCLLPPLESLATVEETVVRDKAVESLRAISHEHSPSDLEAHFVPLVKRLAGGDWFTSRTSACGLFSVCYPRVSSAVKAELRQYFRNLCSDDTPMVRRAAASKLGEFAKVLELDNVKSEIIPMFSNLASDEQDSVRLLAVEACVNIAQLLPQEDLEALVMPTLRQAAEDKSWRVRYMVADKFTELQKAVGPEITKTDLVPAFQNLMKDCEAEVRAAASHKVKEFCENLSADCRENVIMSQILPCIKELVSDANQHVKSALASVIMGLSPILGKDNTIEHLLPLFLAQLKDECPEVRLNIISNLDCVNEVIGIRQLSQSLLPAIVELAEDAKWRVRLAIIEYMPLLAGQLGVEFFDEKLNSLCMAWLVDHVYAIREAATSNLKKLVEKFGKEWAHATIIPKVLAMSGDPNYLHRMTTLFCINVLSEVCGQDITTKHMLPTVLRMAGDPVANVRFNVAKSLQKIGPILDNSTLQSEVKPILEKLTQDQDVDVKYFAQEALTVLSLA
UniProt Q16537, whole entry, looked up: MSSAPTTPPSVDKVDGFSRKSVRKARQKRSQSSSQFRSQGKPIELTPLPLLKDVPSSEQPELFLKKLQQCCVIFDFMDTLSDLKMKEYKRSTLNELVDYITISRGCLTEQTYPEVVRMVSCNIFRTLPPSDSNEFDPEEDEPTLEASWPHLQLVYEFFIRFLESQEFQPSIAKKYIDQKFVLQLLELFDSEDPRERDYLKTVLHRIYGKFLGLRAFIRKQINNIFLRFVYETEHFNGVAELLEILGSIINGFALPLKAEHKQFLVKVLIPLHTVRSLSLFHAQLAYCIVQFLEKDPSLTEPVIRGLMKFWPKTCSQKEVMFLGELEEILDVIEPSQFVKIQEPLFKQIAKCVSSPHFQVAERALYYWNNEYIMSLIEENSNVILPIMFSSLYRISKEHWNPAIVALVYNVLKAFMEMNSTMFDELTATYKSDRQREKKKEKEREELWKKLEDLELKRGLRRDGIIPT
UniProt P35813: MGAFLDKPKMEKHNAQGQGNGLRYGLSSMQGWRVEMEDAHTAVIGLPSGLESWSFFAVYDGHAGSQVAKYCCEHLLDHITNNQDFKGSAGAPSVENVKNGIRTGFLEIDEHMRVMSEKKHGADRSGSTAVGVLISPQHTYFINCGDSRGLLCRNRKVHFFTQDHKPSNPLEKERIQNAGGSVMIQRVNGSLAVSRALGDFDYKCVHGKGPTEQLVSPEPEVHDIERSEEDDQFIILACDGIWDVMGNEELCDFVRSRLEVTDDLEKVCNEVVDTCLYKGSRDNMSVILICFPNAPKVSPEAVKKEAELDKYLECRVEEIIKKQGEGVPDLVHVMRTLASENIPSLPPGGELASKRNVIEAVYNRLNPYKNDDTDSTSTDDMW
UniProt P05771, whole entry, looked up: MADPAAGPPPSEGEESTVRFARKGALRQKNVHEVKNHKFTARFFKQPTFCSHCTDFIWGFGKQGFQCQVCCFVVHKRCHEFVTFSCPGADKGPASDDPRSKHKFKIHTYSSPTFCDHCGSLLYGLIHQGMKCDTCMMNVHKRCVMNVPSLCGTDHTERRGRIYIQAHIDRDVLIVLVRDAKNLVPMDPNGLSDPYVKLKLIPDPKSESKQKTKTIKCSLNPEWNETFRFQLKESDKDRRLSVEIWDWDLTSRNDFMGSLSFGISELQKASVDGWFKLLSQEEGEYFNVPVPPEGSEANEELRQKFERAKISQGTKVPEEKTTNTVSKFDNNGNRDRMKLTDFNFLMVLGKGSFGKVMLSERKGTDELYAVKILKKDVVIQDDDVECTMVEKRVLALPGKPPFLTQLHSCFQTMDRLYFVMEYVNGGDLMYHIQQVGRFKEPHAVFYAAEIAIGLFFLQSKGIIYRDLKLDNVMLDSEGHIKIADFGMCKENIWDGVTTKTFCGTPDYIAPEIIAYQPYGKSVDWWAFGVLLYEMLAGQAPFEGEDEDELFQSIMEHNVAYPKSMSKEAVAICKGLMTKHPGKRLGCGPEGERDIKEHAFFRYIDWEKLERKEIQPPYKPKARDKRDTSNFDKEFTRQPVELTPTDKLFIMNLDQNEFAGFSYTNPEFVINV
UniProt P31321, whole entry, looked up: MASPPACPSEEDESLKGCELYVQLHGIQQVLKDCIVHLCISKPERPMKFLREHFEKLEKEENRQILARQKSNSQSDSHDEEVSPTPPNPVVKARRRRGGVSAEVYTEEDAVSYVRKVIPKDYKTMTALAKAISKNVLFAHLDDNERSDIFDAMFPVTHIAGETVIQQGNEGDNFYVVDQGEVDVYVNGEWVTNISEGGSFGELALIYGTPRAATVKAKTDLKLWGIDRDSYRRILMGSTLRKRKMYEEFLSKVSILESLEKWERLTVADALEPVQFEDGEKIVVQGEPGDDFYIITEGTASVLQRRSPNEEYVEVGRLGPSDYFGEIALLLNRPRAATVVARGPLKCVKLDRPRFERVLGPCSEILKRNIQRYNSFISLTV
UniProt P31323, whole entry, looked up: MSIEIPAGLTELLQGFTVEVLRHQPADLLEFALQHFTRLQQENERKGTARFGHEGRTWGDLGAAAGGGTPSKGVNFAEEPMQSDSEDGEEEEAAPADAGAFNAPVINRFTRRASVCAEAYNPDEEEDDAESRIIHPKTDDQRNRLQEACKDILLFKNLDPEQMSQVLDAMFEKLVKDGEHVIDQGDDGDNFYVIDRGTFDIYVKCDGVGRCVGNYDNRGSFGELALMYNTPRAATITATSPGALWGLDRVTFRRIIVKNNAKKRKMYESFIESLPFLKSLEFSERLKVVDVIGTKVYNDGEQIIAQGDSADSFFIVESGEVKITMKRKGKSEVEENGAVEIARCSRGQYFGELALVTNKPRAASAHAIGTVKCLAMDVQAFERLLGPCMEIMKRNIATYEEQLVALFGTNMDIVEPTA

Key:
Test in all cases: log2 fold change, soluble protein after heating vs DMSO (PISA); higher = thermal stabilisation; K562 lysate, 10 uM; active = over 0.2 and 3.5 SD of the protein, either way, in both replicates (recomputed)
erlotinib = compound: C#Cc1cccc(Nc2ncnc3cc(OCCOC)c(OCCOC)cc23)c1 [erlotinib]
In short: (§1)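 A 30 min treatment with 10 μM compound was applied to crude K562 extract at 1 mg/mL protein in PBS pH 7.4 with 1 mM MgCl2. Heating for 3 min spanned 48°C-58°C, after which aliquots were pooled, adjusted to 0.5% NP-40 at 4°C and spun at 21,000xg for 90 min. TMTpro 16plex LC-MS/MS of the supernatant, with channel sums equalised, gave values recorded as log-two fold change in thermal stability against solvent controls, from duplicates.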

[1] = compound: C/C(=N\NC(=O)C1=CC(=CC=C1)S(=O)(=O)N2CCOCC2)/C3=C(C=CC(=C3)Cl)O
In short: as §1

[2] = compound: C1=CC(=CC=C1C2=NC3=C(N2)C=C(C=C3)C(=O)N)OC4=CC=C(C=C4)Cl
In short: as §1

[3] = compound: C1=CC2=C(C=CC(=C2)/C=C\3/C(=O)NC(=NCC4=CC=CS4)S3)N=C1
In short: as §1

[4] = compound: C1=CC2=NC=CN=C2C=C1/C=C/3\C(=O)NC(=O)S3
In short: as §1

[5] = compound: C1=CC=C(C=C1)C2=NC(=C(N2)C3=CC=NC=C3)C4=CC(=C(C=C4)Cl)O
In short: as §1

[6] = compound: C1=CC=C2C(=C1)C3=NNC4=CC=CC(=C43)C2=O
In short: as §1

[7] = compound: C1CCN(C1)C(=O)NC2=CC=CC(=C2)NC3=NC=C(C(=N3)NCCC4=CN=CN4)Br
In short: as §1

[8] = compound: C1CN(CCC1(CC2=CC=C(C=C2)Cl)N)C3=NC=NC4=C3C=CN4
In short: as §1

IRAK-1-4 Inhibitor I = compound: C1COCCN1CCN2C3=CC=CC=C3N=C2NC(=O)C4=CC(=CC=C4)[N+](=O)[O-] [IRAK-1-4 Inhibitor I]
In short: as §1

ibrutinib = compound: C=CC(=O)N1CCC[C@@H](n2nc(-c3ccc(Oc4ccccc4)cc3)c3c(N)ncnc32)C1 [ibrutinib]
In short: as §1

[9] = compound: CC(=O)c1cnc2ccc(-c3cc(Cl)c(O)c(Cl)c3)nc2c1N[C@H]1CC[C@H](CN(C)C)CC1
In short: as §1

ralimetinib = compound: CC(C)(C)Cn1c(N)nc2ccc(-c3[nH]c(C(C)(C)C)nc3-c3ccc(F)cc3)nc21 [ralimetinib]
In short: as §1

[10] = compound: CC(C)(O)CC(=O)NCCn1ccc2ncnc(Nc3ccc(Oc4cccc(C(F)(F)F)c4)c(Cl)c3)c21
In short: as §1

[11] = compound: CC(C)C1=C2N=C(C=C(N2N=C1)NCC3=CC=CC=C3)NCCCCCCN
In short: as §1

[12] = compound: CC1=C(C(CC(=O)N1)C2=CC=C(C=C2)C(F)(F)F)C(=O)NC3=C(C=C4C(=C3)C=NN4)F
In short: as §1

[13] = compound: CC1=C(C2=C(C=C1)C(=O)C3=CC=CC=C3N2CCCN)C
In short: as §1

[14] = compound: CC1=C(C=C(C=C1)NC(=O)C2=CC(=CC=C2)C(C)(C)C#N)NC3=CC4=C(C=C3)N=CN(C4=O)C
In short: as §1

[15] = compound: CC1=C(C=C(C=C1)NC(=O)C2=CC(=CC=C2)N(C)C)NC(=O)C3=CC=C(C=C3)O
In short: as §1

[16] = compound: CC1=CC=C(C=C1)SC2=C3C=C(SC3=CN=C2)C(=O)N
In short: as §1

Measured: log2 fold change

PRKCI (UniProt P41743)
inactive: erlotinib 0.048 | [1] 0.068 | [2] 0.028 | [3] -0.012 | [4] 0.004 | [5] 0.056 | [6] 0.029 | [7] 0.001 | [8] 0.02 | IRAK-1-4 Inhibitor I 0.005 | ibrutinib -0.011 | [9] 0.022 | ralimetinib 0.016 | [10] 0.004 | [11] 0.036 | [12] -0.009 | [13] -0.035 | [14] 0.04 | [15] 0.009 | [16] -0.008

PPIH (UniProt O43447)
inactive: erlotinib -0.02 | [1] -0.1 | [2] 0.01 | [3] -0.008 | [4] -0.028 | [5] 0 | [6] 0.003 | [7] 0.004 | [8] 0.008 | IRAK-1-4 Inhibitor I -0.011 | ibrutinib 0.012 | [9] -0.009 | ralimetinib -0.002 | [10] -0.029 | [11] -0.02 | [12] -0.015 | [13] 0.04 | [14] 0.002 | [15] 0.026 | [16] 0.004

PQBP1 (UniProt O60828)
inactive: erlotinib -0.009 | [1] -0.041 | [2] 0.006 | [3] -0.02 | [4] -0.052 | [5] 0.053 | [6] 0.014 | [7] -0.016 | [8] 0.014 | IRAK-1-4 Inhibitor I 0.03 | ibrutinib 0.033 | [9] -0.017 | ralimetinib -0.024 | [10] 0.046 | [11] 0.007 | [12] 0.006 | [13] -0.007 | [14] 0.037 | [15] -0.01 | [16] -0.007

PPIP5K2 (UniProt O43314)
inactive: erlotinib 0 | [1] 0.018 | [2] -0.015 | [3] -0.025 | [4] 0 | [5] 0.009 | [6] -0.039 | [7] -0.003 | [8] -0.007 | IRAK-1-4 Inhibitor I -0.011 | ibrutinib 0.008 | [9] -0.002 | ralimetinib 0.006 | [10] -0.022 | [11] 0.009 | [12] -0.018 | [13] -0.013 | [14] -0.027 | [15] 0.004 | [16] 0.041

PRKCSH isoform 2 (UniProt P14314)
inactive: erlotinib 0.038 | [1] -0.107 | [2] 0.084 | [3] 0.024 | [4] 0.001 | [5] -0.054 | [6] -0.011 | [7] -0.009 | [8] 0.015 | IRAK-1-4 Inhibitor I 0.001 | ibrutinib -0.125 | [9] 0.069 | ralimetinib 0.012 | [10] -0.142 | [11] -0.004 | [12] 0.04 | [13] -0.017 | [14] 0.131 | [15] 0.132 | [16] -0.045

PRKCD (UniProt Q05655)
inactive: erlotinib -0.041 | [1] 0.016 | [2] -0.035 | [3] -0.047 | [4] -0.01 | [5] 0.006 | [6] -0.023 | [7] -0.069 | [8] 0.019 | IRAK-1-4 Inhibitor I 0.013 | ibrutinib 0.021 | [9] 0.162 | ralimetinib 0.01 | [10] -0.005 | [11] 0.006 | [12] 0.027 | [13] -0.012 | [14] -0.004 | [15] 0.038 | [16] 0.04

PRKAR2A (UniProt P13861)
inactive: erlotinib 0.001 | [1] 0.032 | [2] 0.02 | [3] -0.02 | [4] -0.009 | [5] 0 | [6] -0.029 | [8] -0.212 | IRAK-1-4 Inhibitor I -0.06 | ibrutinib 0.044 | [9] -0.064 | ralimetinib 0.033 | [10] -0.032 | [11] 0.018 | [12] 0.015 | [13] 0.005 | [14] 0 | [15] 0.011 | [16] 0.036
active: [7] -0.252

PPP2CB (UniProt P62714)
inactive: erlotinib -0.019 | [1] 0.011 | [2] 0.021 | [3] 0.02 | [4] -0.008 | [5] -0.004 | [6] 0.008 | [7] 0.005 | [8] 0.004 | IRAK-1-4 Inhibitor I 0.007 | ibrutinib 0.01 | [9] -0.014 | ralimetinib -0.009 | [10] -0.015 | [11] -0.008 | [12] 0.007 | [13] -0.024 | [14] 0.006 | [15] 0.016 | [16] 0

PPP2R1A (UniProt P30153)
inactive: erlotinib -0.001 | [1] 0.017 | [2] -0.03 | [3] -0.016 | [4] -0.009 | [5] 0.007 | [6] 0.009 | [7] 0.009 | [8] 0.003 | IRAK-1-4 Inhibitor I 0.004 | ibrutinib 0.019 | [9] 0.003 | ralimetinib 0.016 | [10] 0.003 | [11] -0.005 | [12] 0.005 | [13] 0.016 | [14] -0.027 | [15] 0.009 | [16] 0.009

PPP1R2 (UniProt P41236)
inactive: erlotinib 0.014 | [1] 0.024 | [2] -0.03 | [3] -0.011 | [4] -0.006 | [5] -0.007 | [6] 0.027 | [7] 0.027 | [8] 0.015 | IRAK-1-4 Inhibitor I 0.015 | ibrutinib -0.005 | [9] 0.009 | ralimetinib -0.014 | [10] 0.008 | [11] -0.025 | [12] 0.014 | [13] -0.009 | [14] 0.016 | [15] -0.045 | [16] -0.026

PPP2R5E (UniProt Q16537)
inactive: erlotinib -0.021 | [1] 0.036 | [2] 0.024 | [3] -0.021 | [4] 0 | [5] 0.005 | [6] -0.024 | [7] 0.009 | [8] -0.012 | IRAK-1-4 Inhibitor I -0.027 | ibrutinib 0.025 | [9] 0.002 | ralimetinib -0.026 | [10] -0.035 | [11] 0.022 | [12] 0.038 | [13] 0.006 | [14] -0.013 | [15] 0.034 | [16] -0.005

PPM1A isoform 3 (UniProt P35813)
inactive: erlotinib -0.025 | [1] -0.881 | [2] 0.023 | [3] 0.006 | [4] 0.008 | [5] 0.037 | [6] -0.038 | [7] -0.023 | [8] -0.017 | IRAK-1-4 Inhibitor I 0.001 | ibrutinib -0.008 | [9] 0.008 | ralimetinib -0.051 | [10] -0.034 | [11] -0.029 | [12] 0.003 | [13] -0.024 | [14] -0.02 | [15] 0.011 | [16] -0.028

PRKCB isoform 2 (UniProt P05771)
active: [9] 0.548
inactive: erlotinib 0.053 | [1] -0.191 | [2] 0.07 | [3] -0.043 | [4] -0.004 | [5] -0.064 | [6] -0.12 | [7] -0.149 | [8] 0.019 | IRAK-1-4 Inhibitor I -0.02 | ibrutinib -0.017 | ralimetinib 0.02 | [10] 0 | [11] 0.013 | [12] 0.002 | [13] -0.055 | [14] 0.042 | [15] -0.009 | [16] -0.113

PRMT6 (UniProt Q96LA8)
inactive: erlotinib 0.009 | [1] 0.008 | [2] 0.006 | [3] 0.008 | [4] -0.027 | [5] 0.025 | [6] -0.022 | [7] -0.008 | [8] -0.01 | IRAK-1-4 Inhibitor I -0.065 | ibrutinib -0.063 | [9] 0.059 | ralimetinib -0.005 | [10] -0.003 | [11] -0.035 | [12] 0.007 | [13] 0.016 | [14] -0.027 | [15] 0.043 | [16] 0

PRKAR1B (UniProt P31321)
inactive: erlotinib -0.013 | [1] 0.02 | [2] -0.06 | [3] 0.035 | [4] -0.105 | [5] 0.004 | [6] -0.001 | [7] 0.073 | [8] -0.142 | IRAK-1-4 Inhibitor I -0.047 | ibrutinib 0 | [9] 0.003 | ralimetinib -0.029 | [10] 0.118 | [11] -0.015 | [12] -0.012 | [13] 0.095 | [14] -0.046 | [15] -0.023 | [16] 0.035

PRKAR2B (UniProt P31323)
inactive: erlotinib 0 | [1] 0.066 | [2] -0.022 | [3] -0.025 | [4] 0.018 | [5] -0.03 | [6] -0.116 | [7] -0.16 | [8] -0.131 | IRAK-1-4 Inhibitor I -0.016 | ibrutinib -0.017 | [9] 0.008 | ralimetinib 0.007 | [10] -0.01 | [11] 0.022 | [12] 0.015 | [13] -0.004 | [14] 0.027 | [15] 0.031 | [16] 0.03
